The values below come from doi:10.1101/2020.12.22.424016.

The chains behind the UniProt entries cited, without tags or fusion partners. Where a name states a change or a piece, a line headed by the entry shows the natural chain unless it says otherwise.
UniProt F4JCT6: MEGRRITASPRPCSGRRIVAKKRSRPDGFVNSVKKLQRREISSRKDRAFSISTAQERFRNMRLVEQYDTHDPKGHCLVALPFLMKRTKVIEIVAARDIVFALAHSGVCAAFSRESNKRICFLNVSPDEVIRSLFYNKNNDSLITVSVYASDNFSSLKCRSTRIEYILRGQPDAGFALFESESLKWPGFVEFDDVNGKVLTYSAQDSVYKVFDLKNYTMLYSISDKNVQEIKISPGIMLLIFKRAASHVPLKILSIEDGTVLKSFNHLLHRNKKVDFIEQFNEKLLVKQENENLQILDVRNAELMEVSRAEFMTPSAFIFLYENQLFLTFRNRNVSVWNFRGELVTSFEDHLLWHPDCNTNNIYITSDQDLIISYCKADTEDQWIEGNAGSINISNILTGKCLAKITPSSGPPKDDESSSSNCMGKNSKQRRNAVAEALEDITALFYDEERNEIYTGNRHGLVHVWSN

Results are given in words; binding and its absence hold for the method and conditions named. In cells and extracts the contact can be indirect. For some assays here: A result given as binding can be weak or reduced; the word gives no strength. Sequences can lack the tags named with a protein.

What all share (experiment): split reporter
Test [1] deals with T1, FBS3, split-YFP fusion for BiFC (Arabidopsis thaliana) (UniProt Q9S9T6).
T1 sequence: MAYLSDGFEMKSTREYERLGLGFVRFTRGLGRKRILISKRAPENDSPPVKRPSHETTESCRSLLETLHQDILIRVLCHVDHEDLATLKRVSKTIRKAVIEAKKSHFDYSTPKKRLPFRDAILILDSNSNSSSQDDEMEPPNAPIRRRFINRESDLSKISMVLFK

The target in test [2] is T2, FBS1, split-YFP fusion for BiFC (Arabidopsis thaliana) (UniProt Q8GX77).
T2 sequence: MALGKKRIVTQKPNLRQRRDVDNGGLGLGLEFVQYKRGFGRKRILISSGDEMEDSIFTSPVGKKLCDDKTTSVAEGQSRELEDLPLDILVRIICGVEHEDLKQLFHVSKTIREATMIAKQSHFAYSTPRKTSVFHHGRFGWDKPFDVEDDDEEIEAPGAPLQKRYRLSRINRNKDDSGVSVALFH

Test [3] concerns the target T3, FBS4, split-YFP fusion for BiFC (Arabidopsis thaliana) (UniProt Q5XF11).
T3 sequence: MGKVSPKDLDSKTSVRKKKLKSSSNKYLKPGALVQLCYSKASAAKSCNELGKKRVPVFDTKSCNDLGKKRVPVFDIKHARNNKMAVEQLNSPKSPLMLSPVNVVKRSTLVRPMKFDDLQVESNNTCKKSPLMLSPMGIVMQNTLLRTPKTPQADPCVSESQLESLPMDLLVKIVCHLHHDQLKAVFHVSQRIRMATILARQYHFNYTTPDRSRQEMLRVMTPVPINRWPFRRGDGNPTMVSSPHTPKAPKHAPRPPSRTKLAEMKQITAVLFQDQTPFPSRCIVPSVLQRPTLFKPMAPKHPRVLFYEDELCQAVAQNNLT

Test [4] has as its target T4, NIGT1.1, split-YFP fusion for BiFC (Arabidopsis thaliana) (UniProt Q9FPE8).
T4 sequence: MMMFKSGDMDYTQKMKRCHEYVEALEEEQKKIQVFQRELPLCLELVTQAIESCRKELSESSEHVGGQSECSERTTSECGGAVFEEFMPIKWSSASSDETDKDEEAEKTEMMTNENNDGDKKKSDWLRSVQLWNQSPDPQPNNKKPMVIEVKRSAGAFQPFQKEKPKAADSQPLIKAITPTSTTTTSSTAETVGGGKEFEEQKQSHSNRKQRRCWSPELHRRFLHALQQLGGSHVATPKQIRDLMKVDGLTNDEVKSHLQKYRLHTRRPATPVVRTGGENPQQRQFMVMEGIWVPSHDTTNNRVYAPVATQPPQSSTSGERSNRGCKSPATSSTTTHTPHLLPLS

For test [5], the target named is T5, FBS2, split-YFP fusion for BiFC (Arabidopsis thaliana) (UniProt O65416).
T5 sequence: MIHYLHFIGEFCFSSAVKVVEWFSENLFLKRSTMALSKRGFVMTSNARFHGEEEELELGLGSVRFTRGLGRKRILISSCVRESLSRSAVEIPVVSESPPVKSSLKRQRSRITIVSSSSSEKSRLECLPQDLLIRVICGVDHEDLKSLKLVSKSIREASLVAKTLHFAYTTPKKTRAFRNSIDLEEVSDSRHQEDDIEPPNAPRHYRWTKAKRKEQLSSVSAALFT

For “FBIP2, split-YFP fusion for BiFC (Arabidopsis thaliana)”, the binding entry is given as “binds” in test [1]; “binds” in test [2]; “binds” in test [3]; “binds” in test [4]; “no binding” in test [5].
For the substance “FBIP1, split-YFP fusion for BiFC (from UniProt F4JCT6)”, the binding result in test [1], in test [2] and in test [4] was “binds” throughout.
